Measured values: the supplement of paper PMC12819154, “High-throughput peptide-centric local stability assay extends protein–ligand identification to membrane proteins, tissues and bacteria” (Nature Structural & Molecular Biology, 2025)
The list shows a part of the results. Most entries show no effect beyond the scatter of the controls.

Sequences of proteins named here, by UniProt entry; tags and fusion partners are left off. A change or cut given only in a name is not applied to a line headed by its entry.
UniProt Q9NYJ1, whole entry: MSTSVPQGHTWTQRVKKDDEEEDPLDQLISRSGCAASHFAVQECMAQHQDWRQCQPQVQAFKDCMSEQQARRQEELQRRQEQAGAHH
UniProt Q9NUX5: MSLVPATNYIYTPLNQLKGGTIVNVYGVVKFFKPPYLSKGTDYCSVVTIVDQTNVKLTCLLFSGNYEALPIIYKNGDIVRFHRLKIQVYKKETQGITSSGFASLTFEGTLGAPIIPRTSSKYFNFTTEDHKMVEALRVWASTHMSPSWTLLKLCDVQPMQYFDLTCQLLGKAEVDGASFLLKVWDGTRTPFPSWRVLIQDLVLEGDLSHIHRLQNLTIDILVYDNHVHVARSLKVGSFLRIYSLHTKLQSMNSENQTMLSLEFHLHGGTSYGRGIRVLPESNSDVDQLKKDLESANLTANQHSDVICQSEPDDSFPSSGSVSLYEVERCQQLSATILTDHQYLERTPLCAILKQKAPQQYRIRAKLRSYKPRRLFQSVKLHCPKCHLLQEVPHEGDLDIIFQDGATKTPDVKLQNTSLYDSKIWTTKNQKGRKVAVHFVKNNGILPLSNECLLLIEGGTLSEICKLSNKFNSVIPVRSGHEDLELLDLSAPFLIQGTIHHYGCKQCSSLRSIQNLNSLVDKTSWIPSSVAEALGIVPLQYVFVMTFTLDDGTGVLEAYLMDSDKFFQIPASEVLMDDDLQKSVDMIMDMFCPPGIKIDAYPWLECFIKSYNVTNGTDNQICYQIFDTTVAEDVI
UniProt Q9NY12: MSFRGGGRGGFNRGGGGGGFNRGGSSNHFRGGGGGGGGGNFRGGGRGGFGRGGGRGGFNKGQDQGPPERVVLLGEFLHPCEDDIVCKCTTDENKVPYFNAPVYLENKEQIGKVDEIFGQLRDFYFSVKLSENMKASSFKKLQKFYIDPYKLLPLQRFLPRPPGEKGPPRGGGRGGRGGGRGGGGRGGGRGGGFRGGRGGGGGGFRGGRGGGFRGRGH
UniProt Q9NQU5: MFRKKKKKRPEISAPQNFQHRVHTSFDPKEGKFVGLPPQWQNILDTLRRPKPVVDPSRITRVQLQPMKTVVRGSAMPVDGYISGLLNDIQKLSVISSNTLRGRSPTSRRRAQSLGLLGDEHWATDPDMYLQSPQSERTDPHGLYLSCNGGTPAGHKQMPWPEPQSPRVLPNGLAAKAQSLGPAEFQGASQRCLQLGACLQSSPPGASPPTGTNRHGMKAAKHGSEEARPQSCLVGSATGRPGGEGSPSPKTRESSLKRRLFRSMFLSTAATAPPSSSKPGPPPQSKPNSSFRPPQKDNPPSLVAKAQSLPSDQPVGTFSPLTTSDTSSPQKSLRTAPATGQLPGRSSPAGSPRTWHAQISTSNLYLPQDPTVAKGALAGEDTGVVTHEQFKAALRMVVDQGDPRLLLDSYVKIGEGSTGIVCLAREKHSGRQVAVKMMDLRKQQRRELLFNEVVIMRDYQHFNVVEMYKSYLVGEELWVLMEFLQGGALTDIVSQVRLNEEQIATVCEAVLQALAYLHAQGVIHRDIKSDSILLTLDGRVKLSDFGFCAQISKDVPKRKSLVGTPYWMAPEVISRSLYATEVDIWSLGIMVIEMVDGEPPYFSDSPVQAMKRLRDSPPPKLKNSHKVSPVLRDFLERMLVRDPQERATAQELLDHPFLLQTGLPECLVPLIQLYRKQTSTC
UniProt Q9NWM3: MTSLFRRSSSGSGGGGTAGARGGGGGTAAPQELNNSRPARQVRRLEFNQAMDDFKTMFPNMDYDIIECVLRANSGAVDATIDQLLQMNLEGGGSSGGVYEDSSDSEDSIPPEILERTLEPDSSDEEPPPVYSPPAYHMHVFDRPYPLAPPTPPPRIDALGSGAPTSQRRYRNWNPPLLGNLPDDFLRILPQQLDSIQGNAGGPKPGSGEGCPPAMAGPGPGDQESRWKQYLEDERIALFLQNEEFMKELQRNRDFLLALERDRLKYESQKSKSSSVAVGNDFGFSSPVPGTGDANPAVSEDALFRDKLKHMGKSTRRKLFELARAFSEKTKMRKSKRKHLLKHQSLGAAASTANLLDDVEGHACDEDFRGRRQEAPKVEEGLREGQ
UniProt Q9NRK6: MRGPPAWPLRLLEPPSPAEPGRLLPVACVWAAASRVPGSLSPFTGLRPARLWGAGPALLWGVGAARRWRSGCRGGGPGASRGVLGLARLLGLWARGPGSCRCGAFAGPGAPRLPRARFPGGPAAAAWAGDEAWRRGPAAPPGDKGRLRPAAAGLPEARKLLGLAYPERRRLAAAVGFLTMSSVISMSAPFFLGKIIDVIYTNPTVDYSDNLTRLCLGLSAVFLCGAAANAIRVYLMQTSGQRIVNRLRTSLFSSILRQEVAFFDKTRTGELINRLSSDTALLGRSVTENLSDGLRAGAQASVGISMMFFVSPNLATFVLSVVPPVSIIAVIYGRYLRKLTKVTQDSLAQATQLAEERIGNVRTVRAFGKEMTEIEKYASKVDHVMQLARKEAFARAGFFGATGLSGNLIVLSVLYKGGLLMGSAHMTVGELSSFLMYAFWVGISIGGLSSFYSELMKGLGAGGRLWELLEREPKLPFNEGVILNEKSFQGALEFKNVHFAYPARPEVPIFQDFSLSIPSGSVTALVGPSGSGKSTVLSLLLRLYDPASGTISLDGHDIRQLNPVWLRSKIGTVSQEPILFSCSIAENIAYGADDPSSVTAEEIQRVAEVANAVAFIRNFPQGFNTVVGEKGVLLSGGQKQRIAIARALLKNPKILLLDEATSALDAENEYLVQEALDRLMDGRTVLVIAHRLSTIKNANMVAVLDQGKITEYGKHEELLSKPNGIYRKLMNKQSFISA
UniProt Q9NSE4: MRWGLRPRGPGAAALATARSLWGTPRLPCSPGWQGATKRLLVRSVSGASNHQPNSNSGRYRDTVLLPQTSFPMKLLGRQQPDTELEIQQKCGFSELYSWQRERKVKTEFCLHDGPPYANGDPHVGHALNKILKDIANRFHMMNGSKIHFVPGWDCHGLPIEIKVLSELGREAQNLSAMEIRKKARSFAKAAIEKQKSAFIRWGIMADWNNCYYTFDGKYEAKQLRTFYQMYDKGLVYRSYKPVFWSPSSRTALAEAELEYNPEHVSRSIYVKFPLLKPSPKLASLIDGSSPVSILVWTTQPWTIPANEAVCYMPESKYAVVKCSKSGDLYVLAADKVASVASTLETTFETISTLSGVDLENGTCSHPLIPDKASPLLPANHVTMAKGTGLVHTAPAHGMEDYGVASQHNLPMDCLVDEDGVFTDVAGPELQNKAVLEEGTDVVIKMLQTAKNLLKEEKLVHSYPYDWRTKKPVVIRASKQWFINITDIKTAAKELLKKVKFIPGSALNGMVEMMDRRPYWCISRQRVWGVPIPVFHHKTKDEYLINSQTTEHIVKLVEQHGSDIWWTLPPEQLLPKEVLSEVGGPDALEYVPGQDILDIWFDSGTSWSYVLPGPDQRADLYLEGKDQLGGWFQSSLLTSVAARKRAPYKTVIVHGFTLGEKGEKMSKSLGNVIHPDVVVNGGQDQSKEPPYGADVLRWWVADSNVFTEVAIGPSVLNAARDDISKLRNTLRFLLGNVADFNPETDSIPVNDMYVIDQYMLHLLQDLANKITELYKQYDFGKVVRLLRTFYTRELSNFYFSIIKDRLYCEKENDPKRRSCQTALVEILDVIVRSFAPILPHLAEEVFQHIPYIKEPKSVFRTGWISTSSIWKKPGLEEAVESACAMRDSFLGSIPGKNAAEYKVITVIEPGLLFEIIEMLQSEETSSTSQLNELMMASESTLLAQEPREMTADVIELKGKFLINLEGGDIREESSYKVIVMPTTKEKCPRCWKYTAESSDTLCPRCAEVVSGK
UniProt Q9NUQ8: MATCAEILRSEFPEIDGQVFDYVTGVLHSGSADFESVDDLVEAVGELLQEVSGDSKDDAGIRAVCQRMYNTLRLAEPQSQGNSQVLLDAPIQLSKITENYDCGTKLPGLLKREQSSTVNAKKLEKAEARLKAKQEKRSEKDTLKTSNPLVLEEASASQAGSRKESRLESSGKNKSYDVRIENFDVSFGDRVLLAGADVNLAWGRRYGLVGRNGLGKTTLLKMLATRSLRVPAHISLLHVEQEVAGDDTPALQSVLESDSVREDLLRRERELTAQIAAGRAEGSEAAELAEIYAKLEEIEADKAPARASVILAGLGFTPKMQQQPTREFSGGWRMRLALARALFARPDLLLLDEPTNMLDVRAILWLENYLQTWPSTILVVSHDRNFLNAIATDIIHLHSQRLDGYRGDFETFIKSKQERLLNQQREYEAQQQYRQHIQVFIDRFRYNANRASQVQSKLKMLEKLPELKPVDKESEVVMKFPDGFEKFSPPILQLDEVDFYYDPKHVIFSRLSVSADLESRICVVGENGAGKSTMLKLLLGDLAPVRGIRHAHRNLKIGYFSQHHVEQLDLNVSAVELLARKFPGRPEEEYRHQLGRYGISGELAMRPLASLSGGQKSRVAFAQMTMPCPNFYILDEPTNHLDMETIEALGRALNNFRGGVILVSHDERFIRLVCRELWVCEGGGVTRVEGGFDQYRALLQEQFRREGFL
UniProt Q9NUG6, whole entry: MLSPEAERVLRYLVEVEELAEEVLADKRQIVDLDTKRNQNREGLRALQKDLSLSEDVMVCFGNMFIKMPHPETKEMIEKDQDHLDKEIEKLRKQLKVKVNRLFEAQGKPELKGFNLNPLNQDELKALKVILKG
UniProt Q9NRP4: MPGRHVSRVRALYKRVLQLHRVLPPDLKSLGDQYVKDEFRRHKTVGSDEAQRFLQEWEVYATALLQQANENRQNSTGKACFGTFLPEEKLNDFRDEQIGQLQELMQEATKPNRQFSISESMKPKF
UniProt Q9NXL9: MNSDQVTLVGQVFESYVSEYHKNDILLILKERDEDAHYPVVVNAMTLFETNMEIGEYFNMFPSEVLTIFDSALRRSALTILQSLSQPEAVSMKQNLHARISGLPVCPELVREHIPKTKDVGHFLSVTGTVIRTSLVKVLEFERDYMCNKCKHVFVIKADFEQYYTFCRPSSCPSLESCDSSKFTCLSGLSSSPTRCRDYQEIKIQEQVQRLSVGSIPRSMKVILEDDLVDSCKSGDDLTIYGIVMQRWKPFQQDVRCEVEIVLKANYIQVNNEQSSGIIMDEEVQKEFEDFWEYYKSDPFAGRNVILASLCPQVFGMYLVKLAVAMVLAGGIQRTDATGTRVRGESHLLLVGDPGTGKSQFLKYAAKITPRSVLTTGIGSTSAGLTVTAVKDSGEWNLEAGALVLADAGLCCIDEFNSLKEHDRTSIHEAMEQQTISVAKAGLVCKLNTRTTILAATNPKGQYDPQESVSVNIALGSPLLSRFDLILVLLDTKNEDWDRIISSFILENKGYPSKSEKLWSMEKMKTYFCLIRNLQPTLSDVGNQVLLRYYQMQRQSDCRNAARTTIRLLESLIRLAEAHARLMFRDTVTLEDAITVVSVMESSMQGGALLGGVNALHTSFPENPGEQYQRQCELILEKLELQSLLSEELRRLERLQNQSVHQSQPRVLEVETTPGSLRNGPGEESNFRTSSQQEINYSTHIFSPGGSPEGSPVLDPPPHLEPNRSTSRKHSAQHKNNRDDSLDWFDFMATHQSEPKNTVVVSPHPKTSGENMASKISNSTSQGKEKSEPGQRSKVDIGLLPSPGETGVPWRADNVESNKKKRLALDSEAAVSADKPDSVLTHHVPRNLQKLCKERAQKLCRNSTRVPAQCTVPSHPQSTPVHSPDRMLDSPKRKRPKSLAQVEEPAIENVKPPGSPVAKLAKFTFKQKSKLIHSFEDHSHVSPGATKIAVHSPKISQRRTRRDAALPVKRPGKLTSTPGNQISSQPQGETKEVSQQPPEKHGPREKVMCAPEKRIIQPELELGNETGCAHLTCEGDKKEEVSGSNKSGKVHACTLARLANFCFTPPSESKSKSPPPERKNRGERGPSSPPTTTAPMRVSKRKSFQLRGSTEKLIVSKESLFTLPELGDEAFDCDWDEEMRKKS
UniProt Q9NR56: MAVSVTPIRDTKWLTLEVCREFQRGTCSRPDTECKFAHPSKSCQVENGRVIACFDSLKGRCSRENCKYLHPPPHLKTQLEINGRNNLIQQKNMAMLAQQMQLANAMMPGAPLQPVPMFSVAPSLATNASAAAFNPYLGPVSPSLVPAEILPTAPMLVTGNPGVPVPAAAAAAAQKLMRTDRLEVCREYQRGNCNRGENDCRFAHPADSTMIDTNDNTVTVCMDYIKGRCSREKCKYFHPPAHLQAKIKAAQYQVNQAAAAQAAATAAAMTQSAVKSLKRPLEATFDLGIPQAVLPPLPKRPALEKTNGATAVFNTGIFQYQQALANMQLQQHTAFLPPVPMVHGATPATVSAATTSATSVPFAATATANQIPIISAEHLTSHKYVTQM
UniProt Q9NVA1: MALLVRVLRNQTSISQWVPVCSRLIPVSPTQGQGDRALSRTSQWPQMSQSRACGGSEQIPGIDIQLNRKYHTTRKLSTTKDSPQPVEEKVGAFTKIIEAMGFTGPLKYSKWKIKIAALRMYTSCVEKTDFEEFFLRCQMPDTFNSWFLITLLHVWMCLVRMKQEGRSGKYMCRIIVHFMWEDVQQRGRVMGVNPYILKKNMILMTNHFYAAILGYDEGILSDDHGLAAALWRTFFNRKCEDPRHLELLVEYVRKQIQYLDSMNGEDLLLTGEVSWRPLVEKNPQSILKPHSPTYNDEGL

compound: CN[C@@H]1C[C@H]2O[C@@](C)([C@@H]1OC)n1c3ccccc3c3c4c(c5c6ccccc6n2c5c31)C(=O)NC4 [staurosporine]; experiment: log2 fold change of tryptic peptide abundance, ligand vs vehicle (limited proteolysis) (log2 ratio); higher = more trypsin-susceptible (destabilized); details: ligand concentration: 20 uM; sample: K562 cleared lysate; digestion: 4 min, 22 C (HT-PELSA RT4min, Orbitrap Astral)

| Target | log2 fold change |
| --- | --- |
| FANCI (peptide sequence: EDALFCK, peptide start residue: 1020) (UniProt Q9NVI1) | 0.457 |
| UniProt Q9NV56 (peptide sequence: NSSDLGCKEGADKR, peptide start residue: 164) | -0.336 |
| UniProt Q9NYJ1 (peptide sequence: VKKDDEEEDPLDQLISR, peptide start residue: 15) | -0.0832 |
| ARGLU1 (peptide sequence: RVEEELEKR, peptide start residue: 141) (UniProt Q9NWB6) | 0.342 |
| CDC42SE1 (peptide sequence: LGCCVVEKPQPK, peptide start residue: 8) (UniProt Q9NRR8) | -0.291 |
| POT1 (peptide sequence: LQNTSLYDSK, peptide start residue: 413) (UniProt Q9NUX5) | -0.333 |
| GAR1 (peptide sequence: DFYFSVK, peptide start residue: 122) (UniProt Q9NY12) | -0.102 |
| UniProt Q9NSQ0 (peptide sequence: KKFEEDK, peptide start residue: 259) | 0.193 |
| PAK6 (peptide sequence: RELLFNEVVIMR, peptide start residue: 360) (UniProt Q9NQU5) | -0.375 |
| UniProt Q9NWM3 (peptide sequence: GGGGGTAAPQELNNSRPAR, peptide start residue: 22) | 0.227 |
| POLR3B (peptide sequence: FHYGTAFGGSK, peptide start residue: 958) (UniProt Q9NW08) | 0.692 |
| ABCB10 (peptide sequence: STVLSLLLR, peptide start residue: 534) (UniProt Q9NRK6) | 0.368 |
| IARS2 (peptide sequence: EAQNLSAMEIR, peptide start residue: 171) (UniProt Q9NSE4) | 0.45 |
| ABCF3 (peptide sequence: EYEAQQQYR, peptide start residue: 426) (UniProt Q9NUQ8) | -0.189 |
| ZNF277 (peptide sequence: KLDNLQCLYCEK, peptide start residue: 220) (UniProt Q9NRM2) | -0.256 |
| UniProt Q9NUP7 (peptide sequence: QDNQNDDSEEHDDGGYR, peptide start residue: 390) | 0.235 |
| PDRG1 (peptide sequence: YLVEVEELAEEVLADKR, peptide start residue: 12) (UniProt Q9NUG6) | 0.485 |
| UniProt Q9NRP4 (peptide sequence: QFSISESMKPKF, peptide start residue: 114) | 1.12 |
| MCM9 (peptide sequence: LALDSEAAVSADKPDSVLTHHVPR, peptide start residue: 823) (UniProt Q9NXL9) | -0.671 |
| BRWD1 (peptide sequence: SDSVVLVSQSR, peptide start residue: 784) (UniProt Q9NSI6) | 0.356 |
| MBNL1 (peptide sequence: CSRENCKYLHPPPHLK, peptide start residue: 61) (UniProt Q9NR56) | 0.459 |
| AVEN (peptide sequence: SVAAGCPVLLGK, peptide start residue: 246) (UniProt Q9NQS1) | 0.147 |
| UniProt Q9NVA1 (peptide sequence: VMGVNPYILKK, peptide start residue: 189) | -0.787 |
| TBCCD1 (peptide sequence: IACNTHVAPR, peptide start residue: 296) (UniProt Q9NVR7) | -0.236 |
| MED29 (peptide sequence: ESLQTLMK, peptide start residue: 69) (UniProt Q9NX70) | -0.149 |
| MRPL39 (peptide sequence: DAHALIYK, peptide start residue: 205) (UniProt Q9NYK5) | -0.396 |
| NANS (peptide sequence: IPEGTILTMDMLTVK, peptide start residue: 301) (UniProt Q9NR45) | 0.545 |
| UniProt Q9NT68 (peptide sequence: KPSKYCSWK, peptide start residue: 366) | 0.0689 |
| ACTR10 (peptide sequence: CGFAGETGPR, peptide start residue: 27) (UniProt Q9NZ32) | -0.332 |

2 entries from above, field by field:
ABCB10 (peptide sequence: STVLSLLLR, peptide start residue: 534) (UniProt Q9NRK6)
  log2 fold change: 0.368
PDRG1 (peptide sequence: YLVEVEELAEEVLADKR, peptide start residue: 12) (UniProt Q9NUG6)
  log2 fold change: 0.485
